Assay results taken from article PMC9429723 (Journal of Nanobiotechnology, 2022).

Assay: general procedure: Fmoc solid-phase peptide synthesis; 2-chlorotrityl chloride resin
Details: whole synthesis

Substance | isolated yield [%]
PEPTIDE1{[Nap].[dF].[dF].Y.[CS].D.E.V.D}$$$$V2.0 | 24.7
PEPTIDE1{[Nap].[dF].[dF].Y.[CS].D.E.V.D.[BSO]}$$$$V2.0 | 18.18
PEPTIDE1{[Nap].[dF].[dF].Y.[HDA].D.E.V.D.[BSO]}$$$$V2.0 | 15.69

HELM strings list residues between dots; [ac] is acetyl, [am] amide, other brackets name non-standard units.
